Assay results as given in the supplement of paper PMC10849652.
The other results are listed elsewhere or left out.

By UniProt entry, the sequences of proteins in these tests, tags left out. Where a name states a change or a piece, a line headed by the entry shows the natural chain unless it says otherwise.
UniProt P36897: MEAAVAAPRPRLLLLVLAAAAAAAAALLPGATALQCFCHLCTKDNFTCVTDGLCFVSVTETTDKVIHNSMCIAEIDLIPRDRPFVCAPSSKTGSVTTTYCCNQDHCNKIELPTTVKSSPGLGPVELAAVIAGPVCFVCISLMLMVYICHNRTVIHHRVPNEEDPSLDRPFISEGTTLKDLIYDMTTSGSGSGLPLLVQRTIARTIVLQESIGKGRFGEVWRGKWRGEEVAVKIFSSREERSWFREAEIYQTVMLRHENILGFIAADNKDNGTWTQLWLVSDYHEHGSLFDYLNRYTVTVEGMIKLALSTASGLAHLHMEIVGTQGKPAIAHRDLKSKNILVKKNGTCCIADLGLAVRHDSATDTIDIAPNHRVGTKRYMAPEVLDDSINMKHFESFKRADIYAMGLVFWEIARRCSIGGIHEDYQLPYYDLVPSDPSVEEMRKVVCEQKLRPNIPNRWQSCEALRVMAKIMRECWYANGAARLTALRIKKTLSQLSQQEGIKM
UniProt Q15583: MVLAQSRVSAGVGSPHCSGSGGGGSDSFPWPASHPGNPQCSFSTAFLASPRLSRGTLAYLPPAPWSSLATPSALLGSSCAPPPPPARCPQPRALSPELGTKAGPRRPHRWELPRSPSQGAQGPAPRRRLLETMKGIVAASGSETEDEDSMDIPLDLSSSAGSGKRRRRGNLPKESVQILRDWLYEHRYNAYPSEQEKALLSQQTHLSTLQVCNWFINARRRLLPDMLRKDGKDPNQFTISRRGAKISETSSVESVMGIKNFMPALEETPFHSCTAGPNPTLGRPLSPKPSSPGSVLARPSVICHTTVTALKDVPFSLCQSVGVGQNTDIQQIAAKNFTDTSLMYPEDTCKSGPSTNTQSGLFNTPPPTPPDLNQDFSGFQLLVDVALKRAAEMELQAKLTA
UniProt Q96AN5: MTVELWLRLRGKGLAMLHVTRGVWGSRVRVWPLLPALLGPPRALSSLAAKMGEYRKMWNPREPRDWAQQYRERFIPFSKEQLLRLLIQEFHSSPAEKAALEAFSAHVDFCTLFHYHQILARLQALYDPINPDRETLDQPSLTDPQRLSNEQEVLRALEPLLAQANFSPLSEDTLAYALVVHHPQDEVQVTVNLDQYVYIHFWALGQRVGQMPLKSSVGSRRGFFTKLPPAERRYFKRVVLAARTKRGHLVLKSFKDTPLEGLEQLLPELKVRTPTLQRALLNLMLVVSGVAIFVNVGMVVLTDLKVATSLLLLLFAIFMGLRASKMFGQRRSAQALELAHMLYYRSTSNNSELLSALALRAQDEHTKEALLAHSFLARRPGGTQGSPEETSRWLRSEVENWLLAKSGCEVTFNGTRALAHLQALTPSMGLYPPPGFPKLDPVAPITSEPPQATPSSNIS
UniProt Q04726: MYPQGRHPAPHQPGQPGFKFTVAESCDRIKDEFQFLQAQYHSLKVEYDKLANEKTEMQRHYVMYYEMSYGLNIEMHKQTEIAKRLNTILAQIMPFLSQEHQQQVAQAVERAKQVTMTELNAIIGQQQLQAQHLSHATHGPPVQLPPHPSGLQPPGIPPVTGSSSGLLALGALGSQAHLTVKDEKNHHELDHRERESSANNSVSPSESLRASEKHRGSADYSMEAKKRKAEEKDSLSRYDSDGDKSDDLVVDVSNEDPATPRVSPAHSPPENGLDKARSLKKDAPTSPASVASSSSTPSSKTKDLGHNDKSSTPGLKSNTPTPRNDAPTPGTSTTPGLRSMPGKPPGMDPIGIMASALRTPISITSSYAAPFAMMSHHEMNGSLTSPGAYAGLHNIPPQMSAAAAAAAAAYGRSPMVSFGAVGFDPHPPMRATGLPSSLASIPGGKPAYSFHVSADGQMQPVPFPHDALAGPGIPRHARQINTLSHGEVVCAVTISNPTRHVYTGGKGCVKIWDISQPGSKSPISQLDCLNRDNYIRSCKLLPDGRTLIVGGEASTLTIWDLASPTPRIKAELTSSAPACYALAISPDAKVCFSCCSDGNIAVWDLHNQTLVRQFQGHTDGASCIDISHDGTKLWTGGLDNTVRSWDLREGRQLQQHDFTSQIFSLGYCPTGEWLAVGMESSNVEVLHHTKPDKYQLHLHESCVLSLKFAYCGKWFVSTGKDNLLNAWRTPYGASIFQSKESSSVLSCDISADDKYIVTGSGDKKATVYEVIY
UniProt Q6P9G4: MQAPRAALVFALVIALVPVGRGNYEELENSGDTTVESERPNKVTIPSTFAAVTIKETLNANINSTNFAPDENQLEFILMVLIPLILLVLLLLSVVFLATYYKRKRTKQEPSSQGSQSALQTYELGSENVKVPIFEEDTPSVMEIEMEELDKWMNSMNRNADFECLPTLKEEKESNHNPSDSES
UniProt O94876, whole entry, looked up: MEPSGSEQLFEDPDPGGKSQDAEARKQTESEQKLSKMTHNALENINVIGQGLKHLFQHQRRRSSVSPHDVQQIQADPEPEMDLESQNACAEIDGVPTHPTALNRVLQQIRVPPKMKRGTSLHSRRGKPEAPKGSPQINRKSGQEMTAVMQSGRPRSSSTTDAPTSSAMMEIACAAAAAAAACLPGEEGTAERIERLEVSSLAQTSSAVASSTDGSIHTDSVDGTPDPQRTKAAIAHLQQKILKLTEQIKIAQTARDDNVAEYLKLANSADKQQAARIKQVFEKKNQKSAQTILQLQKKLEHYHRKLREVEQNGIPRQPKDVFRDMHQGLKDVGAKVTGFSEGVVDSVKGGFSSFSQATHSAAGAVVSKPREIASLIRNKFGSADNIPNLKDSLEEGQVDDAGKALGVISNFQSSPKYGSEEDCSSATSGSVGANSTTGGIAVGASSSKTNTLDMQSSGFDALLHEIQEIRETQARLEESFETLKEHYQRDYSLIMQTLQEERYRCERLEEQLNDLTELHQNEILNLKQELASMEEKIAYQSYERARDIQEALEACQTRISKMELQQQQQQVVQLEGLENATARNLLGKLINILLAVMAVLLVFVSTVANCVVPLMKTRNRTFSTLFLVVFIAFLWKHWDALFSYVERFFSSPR
UniProt Q7Z402: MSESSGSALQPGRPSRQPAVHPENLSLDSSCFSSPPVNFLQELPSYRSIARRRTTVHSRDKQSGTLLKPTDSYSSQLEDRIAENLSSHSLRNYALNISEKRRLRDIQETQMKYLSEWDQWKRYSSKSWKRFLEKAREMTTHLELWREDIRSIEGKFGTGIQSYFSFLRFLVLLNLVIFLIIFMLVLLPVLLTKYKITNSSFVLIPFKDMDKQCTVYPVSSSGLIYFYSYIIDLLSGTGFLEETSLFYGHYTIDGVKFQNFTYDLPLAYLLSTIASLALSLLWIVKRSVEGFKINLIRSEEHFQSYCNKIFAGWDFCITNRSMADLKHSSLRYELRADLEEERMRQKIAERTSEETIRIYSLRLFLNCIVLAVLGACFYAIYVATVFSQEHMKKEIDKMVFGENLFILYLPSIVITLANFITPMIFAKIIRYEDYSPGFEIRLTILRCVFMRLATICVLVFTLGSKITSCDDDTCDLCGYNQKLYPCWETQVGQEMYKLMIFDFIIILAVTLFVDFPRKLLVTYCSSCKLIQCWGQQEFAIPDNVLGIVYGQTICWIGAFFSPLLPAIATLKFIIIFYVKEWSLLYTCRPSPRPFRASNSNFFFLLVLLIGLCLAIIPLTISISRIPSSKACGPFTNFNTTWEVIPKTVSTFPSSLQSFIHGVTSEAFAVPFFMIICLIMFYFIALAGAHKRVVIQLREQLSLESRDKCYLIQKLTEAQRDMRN
UniProt Q1AE95: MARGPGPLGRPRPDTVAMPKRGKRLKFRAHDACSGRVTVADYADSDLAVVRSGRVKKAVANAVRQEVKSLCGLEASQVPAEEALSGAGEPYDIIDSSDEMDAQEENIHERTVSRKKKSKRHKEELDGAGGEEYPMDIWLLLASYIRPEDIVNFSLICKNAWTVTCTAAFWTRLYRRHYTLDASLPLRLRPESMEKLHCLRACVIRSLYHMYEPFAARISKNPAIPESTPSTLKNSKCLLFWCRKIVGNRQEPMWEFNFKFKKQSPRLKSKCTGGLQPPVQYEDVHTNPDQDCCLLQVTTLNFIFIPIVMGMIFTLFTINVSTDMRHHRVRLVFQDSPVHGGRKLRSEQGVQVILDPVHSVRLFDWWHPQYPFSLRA

What was measured:
Experiment in all cases: log2 fold change, soluble protein after heating vs DMSO (PISA); higher = thermal stabilisation; K562 lysate, 10 uM; active = over 0.2 and 3.5 SD of the protein, either way, in both replicates (recomputed)
erlotinib = compound: C#Cc1cccc(Nc2ncnc3cc(OCCOC)c(OCCOC)cc23)c1 [erlotinib]
Outline: (§1)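 Soluble protein was defined as the supernatant remaining after 21,000xg for 90 min, following pooling of heated aliquots and adjustment to 0.5% NP-40 at 4°C. Before that, crude K562 extract at 1 mg/mL protein in PBS pH 7.4 with 1 mM MgCl2 was treated with 10 μM compound for 30 min and heated for 3 min across 48°C-58°C. Quantification used TMTpro 16plex LC-MS/MS with channel sums equalised, and values are log-two fold changes in thermal stability relative to solvent controls from duplicates.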

[1] = compound: C1=CC(=CC=C1C2=NC3=C(N2)C=C(C=C3)C(=O)N)OC4=CC=C(C=C4)Cl
Outline: as §1

[2] = compound: C1CCN(C1)C(=O)NC2=CC=CC(=C2)NC3=NC=C(C(=N3)NCCC4=CN=CN4)Br
Outline: as §1

[3] = compound: C1CN(CCC1(CC2=CC=C(C=C2)Cl)N)C3=NC=NC4=C3C=CN4
Outline: as §1

[4] = compound: CC(C)C1=C2N=C(C=C(N2N=C1)NCC3=CC=CC=C3)NCCCCCCN
Outline: as §1

[5] = compound: CC1=C(C2=C(C=C1)C(=O)C3=CC=CC=C3N2CCCN)C
Outline: as §1

[6] = compound: CC1=C(C=C(C=C1)NC(=O)C2=CC(=CC=C2)C(C)(C)C#N)NC3=CC4=C(C=C3)N=CN(C4=O)C
Outline: as §1

[7] = compound: C/C(=N\NC(=O)C1=CC(=CC=C1)S(=O)(=O)N2CCOCC2)/C3=C(C=CC(=C3)Cl)O
Outline: as §1

[8] = compound: C1=CC2=C(C=CC(=C2)/C=C\3/C(=O)NC(=NCC4=CC=CS4)S3)N=C1
Outline: as §1

[9] = compound: C1=CC=C(C=C1)C2=NC(=C(N2)C3=CC=NC=C3)C4=CC(=C(C=C4)Cl)O
Outline: as §1

[10] = compound: C1=CC=C2C(=C1)C3=NNC4=CC=CC(=C43)C2=O
Outline: as §1

IRAK-1-4 Inhibitor I = compound: C1COCCN1CCN2C3=CC=CC=C3N=C2NC(=O)C4=CC(=CC=C4)[N+](=O)[O-] [IRAK-1-4 Inhibitor I]
Outline: as §1

[11] = compound: CC(=O)c1cnc2ccc(-c3cc(Cl)c(O)c(Cl)c3)nc2c1N[C@H]1CC[C@H](CN(C)C)CC1
Outline: as §1

ralimetinib = compound: CC(C)(C)Cn1c(N)nc2ccc(-c3[nH]c(C(C)(C)C)nc3-c3ccc(F)cc3)nc21 [ralimetinib]
Outline: as §1

[12] = compound: CC(C)(O)CC(=O)NCCn1ccc2ncnc(Nc3ccc(Oc4cccc(C(F)(F)F)c4)c(Cl)c3)c21
Outline: as §1

[13] = compound: CC1=C(C(CC(=O)N1)C2=CC=C(C=C2)C(F)(F)F)C(=O)NC3=C(C=C4C(=C3)C=NN4)F
Outline: as §1

[14] = compound: CC1=C(C=C(C=C1)NC(=O)C2=CC(=CC=C2)N(C)C)NC(=O)C3=CC=C(C=C3)O
Outline: as §1

[15] = compound: CC1=CC=C(C=C1)SC2=C3C=C(SC3=CN=C2)C(=O)N
Outline: as §1

[16] = compound: C1=CC2=NC=CN=C2C=C1/C=C/3\C(=O)NC(=O)S3
Outline: as §1

ibrutinib = compound: C=CC(=O)N1CCC[C@@H](n2nc(-c3ccc(Oc4ccccc4)cc3)c3c(N)ncnc32)C1 [ibrutinib]
Outline: as §1

Measured: log2 fold change

TGFBR1 isoform 2 (UniProt P36897)
inactive: erlotinib 0.042 | [1] -0.069 | [2] 0.14 | [3] -0.102 | [4] -0.032 | [5] -0.043

TGIF1 (UniProt Q15583)
inactive: erlotinib 0.001 | [1] 0.116 | [4] 0.018 | [6] -0.063

TMEM129
inactive: erlotinib 0.05 | [1] -0.018 | [4] 0.089

TLE3 (UniProt H0YL70)
inactive: [5] 0.004

TMEM143 (UniProt Q96AN5)
inactive: [7] 0.066 | [8] -0.059 | [9] 0.083 | [10] 0.051 | [2] 0.04 | [3] 0.437 | IRAK-1-4 Inhibitor I 0.33 | [11] -0.081 | ralimetinib -0.199 | [12] 0.037 | [13] -0.112 | [5] 0.034 | [6] 0.014 | [14] 0.158 | [15] -0.084

TLE3 isoform 5 (UniProt Q04726)
inactive: erlotinib 0.036 | [1] -0.068 | [16] 0.237 | [9] 0.06 | [2] -0.068 | [3] 0.01 | IRAK-1-4 Inhibitor I -0.021 | ibrutinib 0.045 | [11] -0.022 | ralimetinib -0.027 | [12] -0.077 | [4] -0.061 | [13] 0.138 | [5] -0.053 | [6] 0.093 | [14] 0.018 | [15] -0.035

Copied from above (2 entries):
TMEM129
inactive: erlotinib 0.05 | [1] -0.018 | [4] 0.089

TLE3 (UniProt H0YL70)
inactive: [5] 0.004

(listing goes on)

TMEM154 (UniProt Q6P9G4)
inactive: [9] 0.01 | [2] -0.096 | [3] 0.108 | IRAK-1-4 Inhibitor I 0.019 | ralimetinib -0.079 | [12] 0.164 | [5] 0.048 | [6] -0.052 | [14] 0.172

TMCC1 (UniProt O94876)
inactive: [7] 0.002 | [8] 0.101 | [10] -0.062 | [2] 0.176 | [3] -0.05 | [5] 0.155

TMC7 (UniProt Q7Z402)
inactive: erlotinib -0.425 | [1] 0.408 | [4] -0.116

TMEM183B (UniProt Q1AE95)
inactive: [7] 0.213 | [8] 0.065 | [9] 0.076 | [10] -0.221 | IRAK-1-4 Inhibitor I -0.033 | ralimetinib -0.18 | [12] 0.143 | [14] -0.25
